One substance from PMC7229175 can be followed below.

By UniProt entry, the sequences of proteins in these tests, tags left out. Where a name states a change or a piece, a line headed by the entry shows the natural chain unless it says otherwise.
UniProt Q9UJY5: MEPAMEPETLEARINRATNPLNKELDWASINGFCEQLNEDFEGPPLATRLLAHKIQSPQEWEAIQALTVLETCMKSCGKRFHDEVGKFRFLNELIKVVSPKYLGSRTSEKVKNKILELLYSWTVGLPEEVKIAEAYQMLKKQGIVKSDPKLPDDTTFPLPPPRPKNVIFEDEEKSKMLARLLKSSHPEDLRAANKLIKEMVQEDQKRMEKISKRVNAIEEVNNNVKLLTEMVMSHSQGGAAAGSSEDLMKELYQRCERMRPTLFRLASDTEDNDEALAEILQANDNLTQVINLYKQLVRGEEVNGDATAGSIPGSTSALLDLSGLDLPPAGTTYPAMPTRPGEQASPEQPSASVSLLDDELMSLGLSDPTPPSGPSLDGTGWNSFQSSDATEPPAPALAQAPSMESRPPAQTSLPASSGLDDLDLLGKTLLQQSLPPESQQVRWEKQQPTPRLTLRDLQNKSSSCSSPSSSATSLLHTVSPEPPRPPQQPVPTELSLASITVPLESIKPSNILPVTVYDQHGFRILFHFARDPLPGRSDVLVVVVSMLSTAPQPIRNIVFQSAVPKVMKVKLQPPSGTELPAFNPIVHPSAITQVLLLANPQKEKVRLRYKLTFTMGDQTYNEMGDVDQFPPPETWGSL
UniProt P61205: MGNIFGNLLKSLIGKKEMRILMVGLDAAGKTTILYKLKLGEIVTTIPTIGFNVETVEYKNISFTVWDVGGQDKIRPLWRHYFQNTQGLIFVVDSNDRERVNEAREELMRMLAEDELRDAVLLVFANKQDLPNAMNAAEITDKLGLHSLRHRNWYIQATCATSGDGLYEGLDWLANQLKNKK

For this assay, the target named is ARF-binding domain of GGA1 protein fused with GST (GST-GGA1) (UniProt Q9UJY5). The experiment in a line: pull-down; lysates of WT and BIG1-/- BMDMs treated with LPS (100 ng/ml, 30 min); GTP-bound ARF3 pulled down by GST-GGA1 (ARF-binding domain), western blot; only the target purified. In general terms: In western blotting, separated proteins are transferred to a membrane and probed.

These are yes or no findings as the source states them, for the method shown. Binding seen in cells or lysates may run through a third protein. Binding calls can cover weak binding; strength is not graded here.

Regarding “endogenous ARF3 (from UniProt P61205 1-181)”, the binding entry is recorded as “binds”.
